Source: PubChem BioAssay AID1347076 (National Center for Advancing Translational Sciences (NCATS), 2019)
Hit rate of the full screen: of about 400,000 compounds, about 13,000 (3.2%) were called active. The shares of active, inactive and inconclusive entries below differ from those in the screen. Calls come from the whole dose curve; as a rule, active = well fitted cell-killing curve with a large enough effect; inconclusive = small, poorly fitted or top-dose-only effect, or effect the other way; inactive = flat fitted curve, though single readings scatter. Potencies of inconclusive entries are doubtful fits and often do not repeat.

assay: qHTS assay for MDR1-selective chemotherapeutics: Primary screen using the drug-selected MDR subline cells KB-V1; conditions: KB-V1 MDR cells viability, CellTiter-Glo, 72 h; activity change, negative = cytotoxicity: at 46.1 µM (top of the series); note: nearly all actives have a fitted effect of over 60% in size
Outline: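 Luminescent ATP read-out (CellTiter-Glo, 10 min) measures survival of drug-selected KB-V1 MDR cells after 72 h, 37 degrees C compound exposure. Medium: phenol-red-free DMEM, 10% FBS. Values from fitted concentration-response curves.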
% is set by controls: 0 for no effect and ±100 for the full control effect; potency is the fitted concentration of half-maximal effect.

Row | SMILES | Potency | activity change, negative = cytotoxicity
1 | OC[C@@H]1CN(Cc2cccc(C(F)(F)F)c2)C[C@H](n2cnc3c(NCc4ccc(F)cc4)ncnc32)O1 | inconclusive: 20.6 µM [cytotoxic, single point] | 
2 | COc1cccc(C(=O)NCC(=O)N2CCC3(CC2)NCCc2[nH]cnc23)c1 |  | inactive: 7.08%
3 | COc1ccccc1N1CCN(C(=O)c2cnn(-c3cccc(Cl)c3)c2C2CCN(C(=O)OC(C)(C)C)CC2)CC1 |  | inactive: -4.55%
4 | CC(=O)OCCN(CCOC(C)=O)c1c(C)[nH]c(=O)[nH]c1=O |  | inactive: 14%
5 | C#CC(C)(CC)NC(=O)Cn1nnc(-c2ccc(OCc3ccccc3C)cc2)n1 (stereo not given) | inconclusive: 18.4 µM [cytotoxic, single point] | 
6 | Brc1nc(-c2ccccc2)nc(-c2ccccc2)c1Br | inconclusive: 23.1 µM [rising, partial curve, poor fit] | 
7 | O=C(c1cc(Br)ccc1O)N1CCN(S(=O)(=O)Cc2ccccc2)CC1 | inconclusive: 14.6 µM [cytotoxic, single point] | 
8 | CCC(C)NC(=O)C1CCC(=O)N1CCc1ccccc1 (stereo not given) |  | inactive: 4.78%
9 | N#C/C(=C\c1cccc([N+](=O)[O-])c1)c1ccccn1 |  | inactive: -1.88%
10 | CCc1nnc(NC(=O)CSc2nncc(=O)n2N)s1 | inconclusive: 0.82 µM [rising, full curve] | 
11 | O=C(CN1CCCCC1)Nc1ccccc1C(=O)NC1CC1 |  | inactive: -13.3%
12 | Cc1ccc2nc(-c3ccccc3)c(Cc3ccccn3)n2c1 | inconclusive: 13 µM [cytotoxic, single point] | 
13 | Cc1cccc(/N=C/c2c(O)n(Cc3ccc4c(c3)OCO4)c(=O)c3ccccc23)n1 |  | inactive: -3.92%
14 | COc1ccc(NC(=S)Nc2cc(-c3ccccc3)[nH]n2)cc1Cl |  | inactive: -0.325%
15 | COC(=O)c1ccc(C2c3[nH]c4ccccc4c3C[C@H]3C(=O)N(C4CCN(Cc5ccccc5)CC4)CC(=O)N23)cc1 (stereo not given in full) | inconclusive: 9.2 µM [rising, partial curve] | 
16 | Cc1cccc(C)c1OCc1cc(C(=O)NCc2ccc(Cl)s2)no1 | inconclusive: 0.0259 µM [rising, full curve] | 
17 | O=C(COc1ccc(Cl)cc1)N1CCN(Cc2ccc3c(c2)OCO3)CC1 | inconclusive: 18.4 µM [cytotoxic, partial curve] | 
18 | CC(=O)N1CCc2cc(S(=O)(=O)NCCC(=O)N3CCN(Cc4ccccc4)CC3)ccc21 | active: 16.4 µM | 
19 | COC(=O)[C@H]1C[C@@]2(O)CN(S(=O)(=O)c3ccc(C)cc3)C[C@@]2(OC(=O)NC2CC2)C[C@H]1C(=O)OC |  | inactive: 13.7%
20 | CCc1ccc(OCC(O)Cn2c(N3CCCCC3)nc3c2c(=O)[nH]c(=O)n3C)cc1 (stereo not given) | inconclusive: 6.51 µM [cytotoxic, partial curve] | 

Full records, quoted from the list.
COC(=O)[C@H]1C[C@@]2(O)CN(S(=O)(=O)c3ccc(C)cc3)C[C@@]2(OC(=O)NC2CC2)C[C@H]1C(=O)OC as listed: activity change, negative = cytotoxicity: inactive: 13.7%
COc1ccccc1N1CCN(C(=O)c2cnn(-c3cccc(Cl)c3)c2C2CCN(C(=O)OC(C)(C)C)CC2)CC1 as listed: activity change, negative = cytotoxicity: inactive: -4.55%
